# Measurements from paper PMC3958483, “Fine Specificity and Molecular Competition in SLAM Family Receptor Signalling” (PLoS ONE, 2014).
# Test system: NK92 cells
# Assay: Quantitation of protein in NK92 cells by western blotting
# Design: species or system human
substance,measurement,setting,value
SHP-2: SH2 domain containing tyrosine phosphatase,protein expressed by 0.1×10^6 NK92 cells,"Figure 4, representative blot, per 0.1×10^6 NK92 cells",92 ng
same,cellular concentration compared with KD,NK92 cells,approximately an order of magnitude higher than the KD
same,concentration of SHP-2 compared with SAP / the adaptors,"NK92 cells, b1: adaptors SAP and EAT-2, b49: SAP",in the order of a magnitude higher; also recorded: an order of magnitude higher concentration
same,Concentration,"estimated total cellular concentration in NK92, cell diameter 10 μm, volume 523 fL",24 µM
same,Mean (ng)/10^6 cells,"per 10^6 NK92 cells, mean, n = 3 (SAP, EAT-2), n = 2 (SHP-2)",858 ng
same,Mass (ng)/10^6 cells,"per 10^6 NK92 cells, replicate 1 (first value)",928 ng
same,Mass (ng)/10^6 cells,"per 10^6 NK92 cells, replicate 2",787 ng

# Entries after “also recorded” stand apart in the source; their conditions may differ.
